The values that follow come from US6960440.

Chains of the proteins cited; added tags and fusions are not shown. Lines headed by an entry give the natural chain unless they say otherwise; changes in a name come on top.
UniProt P0A7C2: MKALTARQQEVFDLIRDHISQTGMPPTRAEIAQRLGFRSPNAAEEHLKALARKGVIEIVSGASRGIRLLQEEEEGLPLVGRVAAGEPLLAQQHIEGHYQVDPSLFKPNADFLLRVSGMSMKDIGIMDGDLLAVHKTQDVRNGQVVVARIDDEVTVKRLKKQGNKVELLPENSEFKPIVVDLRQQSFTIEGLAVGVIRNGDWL
UniProt Q9WTZ9: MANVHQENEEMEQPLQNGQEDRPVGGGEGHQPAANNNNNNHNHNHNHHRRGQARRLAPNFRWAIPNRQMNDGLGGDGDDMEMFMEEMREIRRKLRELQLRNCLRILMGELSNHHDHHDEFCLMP

Results are given in words; binding and its absence hold for the method and conditions named. For some assays here: In cells and extracts the contact can be indirect. Some binding calls cover weakened binding; strength is not graded here. For some assays here: Where a sequence is shown, tags or fusion partners need not be part of it.

In experiment [1] the target is full length rat p75NTR expressed in 293T cells (pcDNA3/rat p75NTR) (rat) (UniProt P07174). Description: co-immunoprecipitation from co-transfected 293T cells (FIG. 2B).
Experiment [2] has the same target. Description: co-immunoprecipitation from co-transfected 293T cells treated with NGF.
Experiment [3] shares this target. Description: co-immunoprecipitation from co-transfected 293T cells (anti-Myc IP, anti-p75NTR blot).
Experiment [4] shares this target. Description: co-immunoprecipitation from co-transfected 293T cells treated with various concentrations of NGF.
In experiment [5] the target is T1, GST-rat p75NTRICD fusion protein (a.a. 338-396), E. coli-expressed (rat) (UniProt P07174).
T1 sequence (looked up): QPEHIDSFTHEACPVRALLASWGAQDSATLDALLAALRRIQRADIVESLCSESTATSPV
Description: in vitro GST pull-down (FIG. 2A).

Experiment [6] deals with T1, GST-rat p75NTRICD fusion protein (a.a. 338-396), E. coli-expressed (rat). Description: in vitro GST pull-down, 35S-labelled in vitro-translated NADE.
In experiment [7] the target is T2, LexA-p75NTR (338-396) protein (rat) (UniProt P0A7C2+P07174). Description: yeast two-hybrid screen.
In experiment [8] the target is T2, LexA-p75NTR (338-396) protein (rat). Description: yeast two-hybrid, HIS3 and lacZ reporters, mating test.

For the substance “Myc-tagged mouse NADE expressed in 293T cells (pcDNA3.1(-)Myc-HisA/NADE) (from UniProt Q9WTZ9 1-124)”, the binding result in experiment [1], in experiment [2], in experiment [3] and in experiment [4] was “binds” each time.

“in vitro-translated mouse NADE protein (p75NTR-associated cell death executor) (from UniProt Q9WTZ9 1-124)”: the binding result in experiment [5] and in experiment [6] was “binds” in each case.

Take “mouse cDNA clone No. 59 (NADE) from the mouse embryo pVP16 cDNA library (from UniProt Q9WTZ9 1-124)”: the binding entry in experiment [7] and in experiment [8] was “binds” each time.
